{"sequences": {"note": "Sequences of proteins named here, by UniProt entry; tags and fusion partners are left off. Residues count along the entry.", "UniProt Q01147": "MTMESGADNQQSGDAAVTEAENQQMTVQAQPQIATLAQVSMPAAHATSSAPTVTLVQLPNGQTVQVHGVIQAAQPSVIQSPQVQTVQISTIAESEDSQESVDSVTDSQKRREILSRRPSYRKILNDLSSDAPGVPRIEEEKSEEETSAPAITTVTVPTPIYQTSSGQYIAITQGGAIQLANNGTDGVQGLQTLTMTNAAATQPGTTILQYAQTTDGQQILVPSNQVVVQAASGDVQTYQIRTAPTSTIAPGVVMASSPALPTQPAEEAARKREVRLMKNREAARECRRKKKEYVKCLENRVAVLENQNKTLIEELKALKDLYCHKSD", "UniProt P41593, residues 27-591": "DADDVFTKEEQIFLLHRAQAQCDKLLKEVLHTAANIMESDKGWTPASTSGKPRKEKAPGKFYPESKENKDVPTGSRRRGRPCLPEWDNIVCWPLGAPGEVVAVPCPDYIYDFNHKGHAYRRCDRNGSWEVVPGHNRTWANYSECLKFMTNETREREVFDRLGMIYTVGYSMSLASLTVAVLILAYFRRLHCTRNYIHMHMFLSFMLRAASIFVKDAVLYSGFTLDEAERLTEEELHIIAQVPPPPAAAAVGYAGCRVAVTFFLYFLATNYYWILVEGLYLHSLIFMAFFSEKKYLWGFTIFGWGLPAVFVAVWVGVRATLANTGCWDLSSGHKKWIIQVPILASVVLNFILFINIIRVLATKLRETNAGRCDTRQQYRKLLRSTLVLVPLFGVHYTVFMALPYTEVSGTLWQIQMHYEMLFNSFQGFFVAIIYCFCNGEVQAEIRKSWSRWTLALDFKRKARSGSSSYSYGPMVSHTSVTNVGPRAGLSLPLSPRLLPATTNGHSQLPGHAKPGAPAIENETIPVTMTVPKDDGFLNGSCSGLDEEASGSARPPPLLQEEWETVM"}, "source": "paper PMC6050246", "key": {"[1]": {"target": "phosphorylated cAMP response element binding (CREB) protein (pCREB) (not stated (endogenous in NP cells; mouse and human NP cells were cultured)) (UniProt Q01147)", "experiment": "co-IP; nuclear and cytoplasmic extracts (NE-PER kit) of in vitro-cultured NP cells treated with PTH (1-34) or vehicle; IP with anti-pCREB and blot for PTH1R, or IP with anti-PTH1R and blot for pCREB; interaction reported in the cytoplasmic (acetylated tubulin) extract"}, "[2]": {"target": "parathyroid hormone 1 receptor (PTH1R) (not stated (endogenous in NP cells; mouse and human NP cells were cultured)) (UniProt P41593)", "experiment": "co-IP; nuclear and cytoplasmic extracts (NE-PER kit) of in vitro-cultured NP cells treated with PTH (1-34) or vehicle; IP with anti-pCREB and blot for PTH1R, or IP with anti-PTH1R and blot for pCREB; interaction reported in the cytoplasmic (acetylated tubulin) extract"}}, "note": "Results are given in words; binding and its absence hold for the method and conditions named. Binding seen in cells or lysates may run through a third protein. Some binding calls cover weakened binding; strength is not graded here."}
{"substance": "parathyroid hormone 1 receptor (PTH1R) (from UniProt P41593 27-591)", "values": [{"measurement": "binding", "setting": "[1]", "result": "binds"}]}
{"substance": "phosphorylated cAMP response element binding (CREB) protein (pCREB) (from UniProt Q01147 1-327)", "values": [{"measurement": "binding", "setting": "[2]", "result": "binds"}]}
